A short description of data set [1]: Wetting of cotton skein, ASTM D2281. The following applies: cotton skein at 30° C.
Data set [2] can be described thus: High shear foam height, ASTM D3519. The following applies: 20° C.; for High Shear Foam Height after 5 minutes: ASTM D3519, after 5 minutes; for High Shear Foam Height immediately after foam formation: ASTM D3519, immediately after foam formation.

With `CCCCCCCCCCC(C(=O)c1cc(S(=O)(=O)O)c(C)o1)S(=O)(=O)O.N.N` (stereo not drawn) [NH4^+4,α-OMFS-12-1/0], the “Wetting Time” value in data set [1] is greater than 300 s. For the same compound, in data set [2], the “High Shear Foam Height after 5 minutes” value amounted to 31 mm and the “High Shear Foam Height immediately after foam formation” value (“High Shear Foam Height immediately” for short) came out at 37 mm.
In the same order, the values of `CCCCCCCCCCC(C(=O)c1cc(S(=O)(=O)[O-])c(C)o1)S(=O)(=O)[O-].[Na+].[Na+]` (stereo not drawn) [Na^+ 4,α-OMFS-12-1/0] are greater than 300 s, 15 mm and 25 mm.
On to `CCCCCCCCCCCCC(C(=O)c1cc(S(=O)(=O)[O-])c(C)o1)S(=O)(=O)[O-].[Na+].[Na+]` (stereo not drawn) [Na^+ 4,α-OMFS-14-1/0], for which, in data set [1], the “Wetting Time” value was greater than 300 s. Moreover, in data set [2], the “High Shear Foam Height after 5 minutes” value amounted to 50 mm and the “High Shear Foam Height immediately” value was found to be 53 mm.
In the same order, the values of `CCCCCCCCCCCCCCCCC(C(=O)c1cc(S(=O)(=O)[O-])c(C)o1)S(=O)(=O)[O-].[Na+].[Na+]` (stereo not drawn) [Na^+ 4,α-OMFS-18-1/0] are 141 s, 40/40 mm and 40/40 mm.
`CCCCCCCCCCCC(=O)c1cc(S(=O)(=O)[O-])c(C)o1.[Na+]` [Na^+ 4-OMFS-12-1/0]: the “Wetting Time” value in data set [1] came to 48 s. Further, in data set [2], the “High Shear Foam Height after 5 minutes” value stood at 69 mm and the “High Shear Foam Height immediately” value was 71 mm.
Consider `CCCCCCCCCCC(C(=O)c1ccc(C)o1)S(=O)(=O)[O-].[Na+]` (stereo not drawn) [Na^+ α-OMFS-12-1/0], for which, in data set [1], the “Wetting Time” value came out at 18 s. Besides, in data set [2], the “High Shear Foam Height after 5 minutes” value was 65/65 mm and the “High Shear Foam Height immediately” value is given as 65/65 mm.
